A short description of the experiment: qHTS Assay for Lipid Storage Modulators in Drosophila S3 Cells.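 For cell number change: cells counted by Cell Tracker Red CMTPX staining in the red channel.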 The note with it: BODIPY lipid droplet fluorescence, 18-24 h; for cell number change: measured here: cell count max response, cells fed with added oleic acid. The procedure, abridged:
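Drosophila S3 cells loaded with oleic acid (400 uM, as added) and compounds at several concentrations; lipid droplets imaged by 488-nm laser-scanning cytometry, 500–530 nm intensity and object ratio to cell channel. Percent activity normalized to 20 uM Triacsin C.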
In general terms: qHTS replaces the single test concentration by a dilution series.

Where [1] appears, read: measured here: lipid fluorescence (Fed channel) AC50, cells fed with added oleic acid.
The mark [2] stands for this setting: measured here: cell number channel AC50, cells fed with added oleic acid.

Usually AC50 stands for the concentration at which the activity in the assay is half-maximal.

The list shows a part of the results. Further columns of the screen follow, without active or inactive calls. The list favours compounds with an active or inconclusive main result. The note in brackets gives the kind of curve behind each potency; many fits are weak.

Regarding `Cc1ccc(-c2cn(CCN)c(-c3ccc(Cl)nc3)n2)cc1`, the cell number change was -3.17%. Further, the AC50 under setting [1] is 0.00411 µM [falling, full curve, poor fit].

For the compound `Cc1ccccc1NC(=S)N(CCCN1CCOCC1)Cc1cccnc1`, the AC50 under setting [1] was 3.66 µM [rising, single point].

As to `Cc1cc(C)cc(OCC(=O)OC(C)C(=O)Nc2ccc(Cl)cn2)c1` (stereo not drawn), the cell number change is -9.64%.

Consider `CC(=O)Nc1ccc(-c2nn[nH]n2)cc1Cl`, for which the cell number change is 5.95%. Further, the AC50 under setting [2] was 5.17 µM [falling, partial curve].

As to `CCCCN1C(=O)/C(=C(/C#N)C(N)=O)c2ccccc21`, the cell number change was -26.3%. Further, under setting [1], the AC50 was 18.4 µM [falling, partial curve].

For the compound `Cc1occc1-c1nnc(SCCCC(=O)c2ccc(F)cc2)n1C`, the cell number change was -10.9%.

Turning to `CC1CCCC(C)N1C(=O)COC(=O)COc1ccccc1C#N` (stereo not drawn), the cell number change is -3.88%. The AC50 under setting [1] is 29.1 µM [falling, single point].

For the compound `COc1ccc(S(=O)(=O)N2CCN(C(=O)c3cnc(C)cn3)CC2)cc1`, the cell number change was 23.5%. Further, the AC50 under setting [1] is 0.82 µM [falling, single point].

On to `COc1ccc(Nc2cccc3ccccc23)cc1`, for which the cell number change is -46.6%. Besides, under setting [2], the AC50 was 29.1 µM [falling, single point]. Further, under setting [1], the AC50 is 0.00517 µM [rising, full curve, poor fit].

On to `Cc1cccc(NCC(=O)N/N=C\c2cccn2C)c1`, for which the cell number change came out at 4.98%. Also, the AC50 under setting [2] was 0.184 µM [falling, full curve, poor fit].

Turning to `Cc1noc(C)c1CSc1nc2sc3c(c2c(=O)n1C)CCCC3`, the cell number change was found to be 28.3%.

`CCOC(=O)c1ccc(NC(=O)NS(=O)(=O)c2ccc(C)cc2)cc1`: the cell number change is -12.8%. For the same compound, under setting [1], the AC50 was 0.731 µM [rising, full curve, poor fit].

As for `C=CCn1c(SCC(=O)NCC(=O)OCC)nnc1-c1cccc(OC)c1`, the cell number change is 30.9%. The AC50 under setting [2] was 25.9 µM [rising, single point]. Moreover, the AC50 under setting [1] is 29.1 µM [rising, single point].

For the compound `Cc1cccc(Nc2nnc(SCC(=O)c3ccc(Br)s3)s2)c1C`, the cell number change was found to be 21.6%. The half-maximal activity concentration (AC50) under setting [1] was 5.8 µM [rising, partial curve].

For the compound `COc1cccc(C2=CC(=O)C[C@H](c3ccc(OC)c(OC)c3)C2)c1`, the cell number change is -13.4%. Under setting [1], the concentration at half-maximal activity (AC50) was 13 µM [falling, partial curve].

`CCOP(=O)(OCC)c1ccc2c(c1)C(=O)c1ccccc1CC2`: the cell number change is 12.8%. In addition, the AC50 under setting [2] is 0.82 µM [falling, single point]. Further, the AC50 under setting [1] is 0.651 µM [falling, single point].

For `CN1/C(=C/C(=S)NC(=O)C2(C)CC2(Cl)Cl)C(C)(C)c2ccccc21` (stereo not drawn), the cell number change is -73.8%. Further, the AC50 under setting [2] was 14.1 µM [falling, partial curve]. Moreover, the AC50 under setting [1] was 22.4 µM [falling, partial curve].

Consider `COc1cc(OC)cc(-c2n[nH]c(=S)n2-c2cc(OC)ccc2OC)c1`, for which the AC50 runs as follows: under setting [2], 6.51 µM [rising, single point]; under setting [1], 6.51 µM [rising, single point].

As for `O=C1/C(=C\c2ccc(O)c(O)c2)C(c2ccccc2)=NN1c1ccccc1`, the cell number change stood at 15.6%.

As for `CC(NC(=O)c1ccccc1Cl)NC(=O)c1ccccc1Cl`, the cell number change was determined as 17.5%. Further, the AC50 under setting [1] is 6.51 µM [rising, single point].

For the compound `COc1ccc(OC(C)C(=O)Nc2cccc([N+](=O)[O-])c2)cc1` (stereo not drawn), the cell number change was determined as 21.9%. For the same compound, the AC50 under setting [1] was 20.6 µM [rising, single point].

For `CCOc1ccc(S(=O)(=O)N2CCCC(C(=O)Nc3cccc(C)c3)C2)cc1` (stereo not drawn), the concentration at half-maximal activity (AC50) under setting [1] was 29.1 µM [falling, single point].

Take `COc1ccc(S(=O)(=O)N2CCCCC2)cc1NS(=O)(=O)c1cc(Cl)ccc1Cl`: the cell number change was -4.94%.

Consider `CCn1c(SCc2cc(=O)[nH]c3ccccc23)nnc1C1CC1`, for which the cell number change amounted to 182%. Besides, under setting [2], the AC50 is 23.1 µM [rising, partial curve].

With `CC(=O)CSc1ccc(S(=O)(=O)N2CCN(C)CC2)cn1`, the cell number change stood at 11.8%. Moreover, the AC50 under setting [1] was 13 µM [rising, partial curve, poor fit].

As for `Cc1cc(-c2ccc3ccccc3c2)n2ncnc2n1`, the cell number change turned out to be 7.56%.

As for `COc1cc(/C=C/C(=O)OCC(=O)Nc2cc(S(=O)(=O)N3CCCCC3)ccc2C)ccc1O`, under setting [1], the AC50 was 6.51 µM [rising, single point].

With `CCOc1ccccc1-n1nnnc1SCC(=O)Nc1cc(C)on1`, the cell number change was -12.9%. In addition, under setting [2], the AC50 was 0.13 µM [falling, partial curve, poor fit].

Regarding `COC(=O)c1ccc2c(=O)n(CCCCCC(=O)N3CCN(c4ccc(F)cc4)CC3)c(=O)[nH]c2c1`, the cell number change was -30.5%. Besides, the AC50 under setting [2] is 0.058 µM [falling, full curve, poor fit]. The AC50 under setting [1] was 9.2 µM [falling, partial curve].

For the compound `CCOC(=O)C1CCN(C(=O)COc2ccc(N(C)S(=O)(=O)c3ccc(C)cc3)cc2)CC1`, under setting [1], the AC50 was 0.00651 µM [falling, full curve, poor fit].

On to `CCCCCN(C(=O)CCC(=O)OCc1ccccc1F)c1c(N)n(CCCC)c(=O)[nH]c1=O`, for which the cell number change was -75%. Besides, the AC50 under setting [2] is 20.6 µM [falling, single point].

On to `CS(=O)(=O)c1ccc(C(=O)Nc2ccc(S(=O)(=O)N3CCCCC3)cc2)cc1`, for which the cell number change is -50%. In addition, the AC50 under setting [2] is 16.4 µM [falling, single point]. Also, the AC50 under setting [1] is 29.1 µM [falling, single point].

`Nc1ccc(S(=O)(=O)N2CCCC2)cc1Cl`: the cell number change is -17.4%. The half-maximal activity concentration (AC50) under setting [1] is 0.82 µM [falling, partial curve, poor fit].

Regarding `CC(=NCCc1ccccc1)C1=C(O)COC1=O`, the cell number change was -9.79%. For the same compound, the AC50 under setting [2] was 2.31 µM [falling, partial curve]. Further, the concentration at half-maximal activity (AC50) under setting [1] is 20.6 µM [falling, single point].

`COc1ccccc1NC(=O)c1cc[n+](C)cc1`: the cell number change was -10.4%.

Consider `COC(=O)C/C=C/[C@@H](C)[C@@H](/C=N/OC[C@H]1O[C@H](c2ccccc2)C=C[C@@H]1Oc1ccc(OC)cc1)NS(=O)(=O)c1ccc(C)cc1`, for which the cell number change is 26.2%. For the same compound, under setting [1], the AC50 was 14.6 µM [rising, partial curve].

For the compound `Cc1ccc(C(=O)OCC(=O)N2CCNC2=O)c(C)c1`, the cell number change was -9.5%.

Regarding `CCOc1cc(C(=O)Nc2ccccc2F)cc(Br)c1OCC`, the AC50 under setting [2] was 0.116 µM [falling, full curve, poor fit].

On to `Cc1ccc(Nc2nc(N)nc(CN3CCN(Cc4ccc5c(c4)OCO5)CC3)n2)cc1Cl`, for which the cell number change is -47.5%. Also, the concentration at half-maximal activity (AC50) under setting [2] was 14.6 µM [falling, partial curve, poor fit]. Moreover, the AC50 under setting [1] was 29.1 µM [falling, single point].

For `CN(C)CCNC(=O)C12CC3(C)CC(C)(CC(C)(C3)C1)C2`, the cell number change was -36.9%. Further, under setting [2], the AC50 was 16.4 µM [falling, single point]. For the same compound, the AC50 under setting [1] is 0.231 µM [falling, partial curve, poor fit].

For `Cc1ccc(C(=O)N/C(=C\c2ccco2)C(=O)NCCCN2CCOCC2)cc1C`, the cell number change stood at 32.1%. Also, the AC50 under setting [2] is 5.8 µM [rising, full curve, poor fit].

As for `Cc1sc(NC(=O)COc2cccc(-n3cnnn3)c2)c(C#N)c1C`, the cell number change is 55.8%. Besides, the AC50 under setting [2] was 3.26 µM [rising, full curve]. Also, the AC50 under setting [1] was 3.66 µM [rising, full curve].

As for `O=C(NCCc1ccccc1)C1=COCCO1`, the cell number change was found to be 12.6%.

As for `COc1cc(/C=N/N(C)C2=NS(=O)(=O)c3ccccc32)cc(OC)c1OC`, the cell number change amounted to 3.78%. For the same compound, the AC50 under setting [1] is 0.651 µM [falling, full curve, poor fit].

For `CCn1c(=O)c2c(nc3n2CC(C)CN3CCc2ccccc2)n(C)c1=O` (stereo not drawn), the cell number change was -31.8%. Besides, the concentration at half-maximal activity (AC50) under setting [2] is 5.8 µM [falling, full curve, poor fit].

With `CCN(CC)C(=O)CSC1=C(C#N)C(c2ccco2)C(C(=O)OCCOC)=C(C)N1` (stereo not drawn), the cell number change was 18.2%. Moreover, the AC50 under setting [1] was 0.082 µM [rising, full curve, poor fit].

Take `COc1cc(C(=O)OC(C)C(=O)NC2CCCCC2C)c([N+](=O)[O-])cc1OC` (stereo not drawn): the cell number change is -38.8%. In addition, the AC50 under setting [2] was 20.6 µM [falling, single point]. Under setting [1], the half-maximal activity concentration (AC50) is 16.4 µM [falling, single point].

On to `COc1ccc(-c2c(-c3ccc(OC)c(C)c3O)n[nH]c2C)cc1`, for which the cell number change was -59.3%. Further, under setting [2], the half-maximal activity concentration (AC50) is 11.6 µM [falling, partial curve, poor fit]. The AC50 under setting [1] is 11.6 µM [rising, partial curve, poor fit].

On to `CCc1cc(C(=O)N2CCN(S(=O)(=O)c3cc(C)ccc3C)CC2)sc1C`, for which the half-maximal activity concentration (AC50) under setting [1] is 18.4 µM [falling, partial curve].

On to `COCCNC(=O)CC(c1ccccc1)c1ccccc1`, for which the cell number change was -19.1%. For the same compound, the AC50 under setting [2] is 1.3 µM [falling, partial curve]. For the same compound, the AC50 under setting [1] was 14.6 µM [falling, partial curve].

As to `Cc1ccc(OCCC(=O)NNC(=O)c2cc(C)oc2C)cc1`, the cell number change is -13.7%. Also, under setting [1], the AC50 was 0.259 µM [rising, full curve].

In the case of `CCNc1nc(NC(C)C)nc(N(n2cnnc2)S(=O)(=O)c2ccc(C)cc2)n1`, the cell number change came to 0.367%. Further, under setting [2], the AC50 is 0.92 µM [rising, full curve].

For `COc1ccc(/C=N/n2cnnc2SCc2ccc(OC)cc2)cc1`, the AC50 under setting [2] is 6.51 µM [rising, single point].

Consider `COC(=O)c1ccccc1NC(=O)N1CCN(Cc2ccco2)CC1`, for which the cell number change was 15.8%. In addition, under setting [1], the AC50 is 0.103 µM [falling, full curve, poor fit].

In the case of `COc1ccc(CCC(=O)N2CCN(S(=O)(=O)c3ccc(OC)cc3)CC2)cc1`, the cell number change was found to be 0.564%.

Regarding `Cc1ccc(NC(=O)CN2CCN(C(=O)c3ccco3)CC2)cc1`, the cell number change is 15.1%.

For `Cc1cc2cc(CN(Cc3ccco3)C(=O)NCc3ccccc3)c(=O)[nH]c2cc1C`, the AC50 under setting [2] is 6.51 µM [rising, single point] and the AC50 under setting [1] was 0.92 µM [rising, full curve].

On to `CCn1c(SCC(=O)N(C)c2ccccc2)nc2c([nH]c3ccccc32)c1=O`, for which the cell number change was -24.6%. The half-maximal activity concentration (AC50) under setting [2] was 4.11 µM [falling, full curve, poor fit].

With `CCC(Oc1ccccc1)C(=O)N1CCN(C(=O)C(CC)Oc2ccccc2)CC1` (stereo not drawn), the cell number change was -0.53%. Further, the AC50 under setting [1] was 6.51 µM [falling, single point].

Source of the values: PubChem BioAssay AID2685 (National Center for Advancing Translational Sciences (NCATS), 2010).
